Data as given in PubChem BioAssay AID652272 (Drosophila RNAi Screening Center, 2013)

- Aim: 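Genes whose knock-down decreases or increases Hedgehog reporter output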 (primary screen)
- Cell system: Drosophila clone 8 (Cl8) cells
- Reagent: long dsRNA against Drosophila genes
- Detection: 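Firefly light from a Hedgehog-responsive ptc promoter reporter and Renilla reference light, both read on a plate reader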
- Scale: firefly Hh reporter signal: higher = more ptc reporter light; Renilla reference signal: higher = more Renilla control light
- Hit rule: 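Called a hit if the two-replicate mean z-score lies below -2 or above +3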
- Meaning of the calls: active = hit: reporter lowered or raised; inactive = not a hit
The screen tested about 21,000 reagents; below is a random part of those with a known target gene and a result. In the full data, 503 (2.4%) were called active. 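Raw plate light values, not normalised; calls rest on replicate z-scores that were not deposited; hits include reporter decreases as well as increases.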 No sequences are given here. Not stated in the record: the amount of reagent, the time to read-out.

Target gene	dsRNA	firefly Hh reporter signal, replicate 1	firefly Hh reporter signal, replicate 2	firefly Hh reporter signal, replicate 3	Renilla reference signal, replicate 1	Renilla reference signal, replicate 2	outcome
Ir62a	DRSC08250	65287	36817		1975	3248	inactive
CG3078	DRSC18531	92075	73936		3028	2789	inactive
NC2beta	DRSC01895	93980	1.05e5		4969	4549	inactive
RpL7	DRSC03417	18676	17405		1306	3592	active
Pka-C3	DRSC09402	2.89e5			7668		inactive
Pka-C3	DRSC11254	71377			5572	2822	inactive
CG6426	DRSC06985	87936	60784		2288	4710	inactive
CG3732	DRSC04410	57426	48128		3956	3050	active
CG18336	DRSC06334	1.00e5	43991		2829	3648	inactive
CG9588	DRSC16504	68049	82646		1532	1926	inactive
Eglp1	DRSC04502	1.29e5	83464		4896	3368	inactive
yellow-f2	DRSC16372	1.56e5	1.32e5		5069	5530	inactive
GMF	DRSC01928	1.15e5	94746		5458	4116	inactive
Btk	DRSC02008	1.00e5	44054		2487	4602	inactive
Btk	DRSC02666	1.71e5	2.05e5		7429	7430	inactive
CG45067	DRSC08414	64442	39176		1568	2986	inactive
Tbcb	DRSC06067	1.34e5	91328		6520	4454	inactive
lute	DRSC14812	76823	91305		1756	2384	inactive
lute	DRSC15769	1.12e5	1.17e5		5258	4276	inactive
Vps16B	DRSC15304	92292	1.09e5		2336	5925	inactive
CG8854	DRSC07288	79672	41606		3825	1760	inactive
sut3	DRSC07702	69597	59969		1752	4810	inactive
kirre	DRSC18785	1.14e5	1.61e5		4660	6309	inactive
ninaD	DRSC02886	1.04e5	73549		2640	5059	inactive
CG15812	DRSC08479	85285	36322		2168	1892	inactive
Scp1	DRSC20799	7.80e5	2.43e5		40723	5962	inactive
Scp1	DRSC20803	6.97e5	2.65e5		37528	6932	inactive
Scp1	DRSC20806	1.34e5	2.62e5		5147	11680	inactive
Fkbp12	DRSC07425	1.13e5	65904		2710	4304	inactive

9 successive entries already listed, for reference:
Target gene	dsRNA	firefly Hh reporter signal, replicate 1	firefly Hh reporter signal, replicate 2	firefly Hh reporter signal, replicate 3	Renilla reference signal, replicate 1	Renilla reference signal, replicate 2	outcome
CG3732	DRSC04410	57426	48128		3956	3050	active
CG18336	DRSC06334	1.00e5	43991		2829	3648	inactive
CG9588	DRSC16504	68049	82646		1532	1926	inactive
Eglp1	DRSC04502	1.29e5	83464		4896	3368	inactive
yellow-f2	DRSC16372	1.56e5	1.32e5		5069	5530	inactive
GMF	DRSC01928	1.15e5	94746		5458	4116	inactive
Btk	DRSC02008	1.00e5	44054		2487	4602	inactive
Btk	DRSC02666	1.71e5	2.05e5		7429	7430	inactive
CG45067	DRSC08414	64442	39176		1568	2986	inactive

Further reagents follow.
Target gene	dsRNA	firefly Hh reporter signal, replicate 1	firefly Hh reporter signal, replicate 2	firefly Hh reporter signal, replicate 3	Renilla reference signal, replicate 1	Renilla reference signal, replicate 2	outcome
CG12811	DRSC14549	1.18e5	95651		4155	2937	inactive
CG34194	DRSC05666	73384	1.42e5		2978	8514	active
CG11912	DRSC00332	73760	75526		3362	3392	inactive
Fs	DRSC06258	1.06e5	1.06e5		4585	3927	inactive
Fs	DRSC06259	63729	44932		1777	3738	inactive
Alg1	DRSC15297	1.45e5	72868		5701	3019	inactive
Cbp53E	DRSC07356	1.34e5	99629		4891	4240	inactive
Porin2	DRSC02584	1.32e5	82736		2730	7168	inactive
Andorra	DRSC19475	1.18e5	3.16e5		3227	11331	inactive
CG14374	DRSC14834	88538	74893		2832	2128	inactive
brv3	DRSC18657	56960	1.69e5		1719	7444	inactive
Dpy-30L1	DRSC02959	1.02e5	48845		3180	4906	inactive
mRpS2	DRSC00550	1.48e5	1.31e5		4061	7504	inactive
CG14506	DRSC14858	80073	84802		1777	2396	inactive
osi	DRSC02931	1.41e5	6.89e5	67255	3683	29382	inactive
CycE	DRSC03295	34103	38368		1761	1910	inactive
CycE	DRSC03296	86474	42162		2579	4248	inactive
cn	DRSC07594	73536	42519		1645	4528	inactive
mRpL52	DRSC06585	1.14e5	67254		2183	5085	inactive
Rph	DRSC17790	63222	1.75e5		1936	6723	inactive
CG8132	DRSC16383	1.38e5	1.72e5		4304	4742	inactive
Yeti	DRSC21138	6.14e5	1.83e5		22219	1754	active
TTLL6B	DRSC15932	94889	89208		3277	2897	inactive
CG1275	DRSC08294	1.00e5	82340		4816	3866	inactive
mRpL35	DRSC14586	5.58e5	1.69e5		29043	17177	inactive
CG17048	DRSC06649	1.43e5	1.27e5		4042	7995	inactive
MESR3	DRSC02463	59927	40309		1446	3706	inactive
CG12204	DRSC19442	1.07e5	1.05e5		1736	2457	inactive
